# Data reported in article PMC12344264, “Mechanistic, in-silico and in vitro studies with nitrofurans reveal potent leishmanicidal activity and inhibition of trypanothione reductase” (International Journal for Parasitology: Drugs and Drug …, 2025).
# Tests used:
# [1] = tested on: HepG2 cells; experiment: Cytotoxicity, alamarBlue, 72 h; assay type: cell-based, human; conditions: CC50/EC50 between axenic amastigotes and HepG2 cells
# Description: (§1) For cytotoxicity tests, several mammalian cell lines were used. […] Primary cell cultures were also used to evaluate cytotoxicity. […] BMDM cells were differentiated for one week with 30 % […] from L929 cell line.
# (§2) The in vitro cytotoxicity of the selected nitrofurans was evaluated in HepG2, RAW 264.7 cells, splenocytes and BMDM. In each well of a 96-well microtitre plate, 100 μL containing 10,000 HepG2 or RAW 264.7 cells were incubated for 24h at 37 °C and 5 % CO2 to allow the cells to settle. For primary cells, 100 μL containing 100,000 BMDM or 1,000,000 splenocytes were added to each well. Subsequently, […] of one-half serial dilutions of each compound diluted in DMEM (for HepG2 cells), RPMI medium (for RAW cells), splenocyte medium (for splenocytes) or BMDM medium supplemented with 10 % GM-CSF (for BMDM), were added to each well. The cytotoxic effect of the compounds was measured after 72 h of incubation at 37 °C and 5 % CO2. For this purpose, a 10 % (v/v) of the alamarBlue™ cell viability reagent (Invitrogen, Fisher Scientific International Inc., Pittsburgh, PA, USA) was added, and the reaction was incubated for 4 h at 37 °C and 5 % CO2. Fluorescence was measured using a Varioskan Lux spectrophotometer (ThermoFisher Scientific, Waltham, MA, USA). Positive controls consisting of 0.1 % (v/v) H2O2, and negative controls, consisting of 0.1 % (v/v) DMSO, were also included on each plate.
# (§3) All experiments were carried out in triplicate and included at least three technical replicates. […] The SI was calculated from the CC50/EC50 ratio.
# [2] = tested on: RAW 264.7 cells; experiment: Cytotoxicity, alamarBlue, 72 h; assay type: cell-based, murine; conditions: CC50/EC50 between axenic amastigotes and RAW 264.7 cells
# Description: as §1, §2, §3
# [3] = tested on: Splenocytes; experiment: Cytotoxicity in primary splenocytes, alamarBlue, 72 h; assay type: cell-based, mouse; conditions: CC50/EC50 between intramacrophage amastigotes and splenocytes
# Description: as §1, §2, §3
# [4] = tested on: BMDM; experiment: Cytotoxicity in bone marrow-differentiated macrophages, alamarBlue, 72 h; assay type: cell-based, mouse; conditions: CC50/EC50 between intramacrophage amastigotes and BMDM
# Description: as §1, §2, §3
SMILES,SI1 [1],SI2 [2],SI1 [3],SI2 [4],SI1 ([1]; listed as nitrofurazone)
"N#Cc1ccc([N+](=O)[O-])o1 [5-nitro-2-furonitrile, 5-Nitro-2-furonitrile]",30.99,44.59,5.86,17.81,
NC(=O)N/N=C/c1ccc([N+](=O)[O-])o1 [Nitrofurazone],133.67,80.84,79.43,82.76,133.7
CC1CS(=O)(=O)CCN1/N=C/c1ccc([N+](=O)[O-])o1 (centres unmarked) [Nifurtimox],21.44,12.76,37.80,60.22,
O=C1CN(/N=C/c2ccc([N+](=O)[O-])o2)C(=O)N1 [Nitrofurantoin],21.95,25.48,15.80,26.81,
"O=C1NN(c2ccc(F)c(Cl)c2)C(=O)C1=Cc1ccc([N+](=O)[O-])o1 [PYZD-4409, 1-(3-chloro-4-fluorophenyl)-4-[(5-nitro-2-furyl)methylene]-3,5-pyrazolidinedione]",12.81,40.73,,,
"CC(=O)OC(OC(C)=O)c1ccc([N+](=O)[O-])o1 [5-nitro-2-furaldehide diacetate, 5-Nitro-2-furaldehyde diacetate]",6.92,4.49,2.40,2.59,
